PubChem BioAssay AID1259425 – University of Nebraska Medical Center | 2018
The deposit covers about 14,000 reagents; this is a random part of them. Not stated in the record: the time to read-out.

Screen: 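Compare each knockdown with KSR1 silencing using changes in marker transcripts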 (primary screen)
Cells: HCT116 human colon cancer cells
Reagents: siRNA pool against human genes, 50 nM siRNA
Detection: 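After 50 nM siRNA pool, branched-DNA assay measures six marker transcripts per well, minus blank, normalised to the geometric mean of two housekeeping transcripts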
Scale: BNIP3L mRNA: higher = more BNIP3L transcript after knockdown; NDRG1 mRNA: higher = more NDRG1 transcript after knockdown; BNIP3 mRNA: higher = more BNIP3 transcript after knockdown; ALDOC mRNA: higher = more ALDOC transcript after knockdown; ACSL5 mRNA: higher = more ACSL5 transcript after knockdown

| target gene | PubChem SID | BNIP3L mRNA, set 1 | NDRG1 mRNA, set 1 | BNIP3 mRNA, set 1 | ALDOC mRNA, set 1 | ACSL5 mRNA, set 1 |
| --- | --- | --- | --- | --- | --- | --- |
| APRT (adenine phosphoribosyltransferase) | SID363991808 | 0.0943 | 0.0309 | 0.22 | 0.0109 | 0.092 |
| CIB3 (calcium and integrin binding family member 3) | SID364004453 | 0.155 | 0.107 | 0.323 | 0.0227 | 0.183 |
| EDAR (ectodysplasin A receptor) | SID364002396 | 0.0932 | 0.12 | 0.298 | 0.0117 | 0.136 |
| PMF1 (polyamine modulated factor 1) | SID363997917 | 0.0877 | 0.137 | 0.362 | 0.0313 | 0.106 |
| SPACA9 (sperm acrosome associated 9) | SID364001282 | 0.187 | 0.189 | 0.212 | 0.0223 | 0.114 |
| RNGTT (RNA guanylyltransferase and 5'-phosphatase) | SID363994863 | 0.0975 | 0.261 | 0.262 | 0.0153 | 0.278 |
| RAB20 (RAB20, member RAS oncogene family) | SID364000551 | 0.129 | 0.118 | 0.335 | 0.0337 | 0.0932 |
| PTRH2 (peptidyl-tRNA hydrolase 2) | SID363999850 | 0.191 | 0.364 | 0.266 | 0.0141 | 0.208 |
| KANSL2 (KAT8 regulatory NSL complex subunit 2) | SID364000556 | 0.0669 | 0.258 | 0.209 | 0.019 | 0.127 |
| KLC2 (kinesin light chain 2) | SID364002566 | 0.0924 | 0.0977 | 0.221 | 0.019 | 0.0871 |
| DUOX2 (dual oxidase 2) | SID363998597 | 0.163 | 1.42 | 0.179 | 0.0551 | 0.198 |
| MKRN2 (makorin ring finger protein 2) | SID363998618 | 0.108 | 0.075 | 0.265 | 0.0221 | 0.161 |
| AKAP17A (A-kinase anchoring protein 17A) | SID363996024 | 0.148 | 0.851 | 0.55 | 0.0176 | 0.232 |
| SFRP4 (secreted frizzled related protein 4) | SID363994163 | 0.0529 | 0.0463 | 0.193 | 0.0188 | 0.0619 |
| SAT1 (spermidine/spermine N1-acetyltransferase 1) | SID363994121 | 0.114 | 0.235 | 0.243 | 0.0206 | 0.171 |
| TNFSF8 (TNF superfamily member 8) | SID363992529 | 0.058 | 0.313 | 0.232 | 0.0252 | 0.173 |
| NEO1 (neogenin 1) | SID363993672 | 0.17 | 0.186 | 0.433 | 0.017 | 0.426 |
| CDH10 (cadherin 10) | SID363997500 | 0.0895 | 0.119 | 0.342 | 0.0101 | 0.294 |
| MFSD2A (MFSD2 lysolipid transporter A, lysophospholipid) | SID364004176 | 0.191 | 0.207 | 0.552 | 0.0978 | 0.313 |
| LBH (LBH regulator of Wnt signaling pathway) | SID364003490 | 0.236 | 0.578 | 0.373 | 0.135 | 0.506 |
| SSPOP (SCO-spondin, pseudogene) | SID364005585 | 0.288 | 0.866 | 0.311 | 0.0178 | 0.395 |
| MS4A14 (membrane spanning 4-domains A14) | SID364004085 | 0.157 | 0.215 | 0.341 | 0.0385 | 0.428 |
| OR7A17 (olfactory receptor family 7 subfamily A member 17) | SID364003480 | 0.188 | 0.337 | 0.367 | 0.0682 | 0.243 |
| PSMG3 (proteasome assembly chaperone 3) | SID364003888 | 0.168 | 0.156 | 0.249 | 0.0906 | 0.176 |
| B3GALT5 (beta-1,3-galactosyltransferase 5) | SID363996904 | 0.27 | 0.181 | 0.442 | 0.0261 | 0.189 |
| FSCN3 (fascin actin-bundling protein 3) | SID364001637 | 0.097 | 0.192 | 0.278 | 0.0107 | 0.237 |
| JAGN1 (jagunal vesicle mediated transporter 1) | SID364004008 | 0.109 | 0.164 | 0.344 | 0.0262 | 0.156 |
| GINS1 (GINS complex subunit 1) | SID364001985 | 0.138 | 0.404 | 0.348 | 0.0419 | 0.239 |
| STAG3L4 (STAG3 cohesin complex component like 4 (pseudogene)) | SID364002597 | 0.248 | 0.149 | 0.363 | 0.0538 | 0.116 |
| PHF20L1 (PHD finger protein 20 like 1) | SID363999797 | 0.0593 | 0.103 | 0.22 | 0.00907 | 0.0808 |
| AIMP2 | SID363997125 | 0.0608 | 0.168 | 0.201 | 0.00872 | 0.0936 |
| SERPINB10 (serpin family B member 10) | SID363995963 | 0.12 | 0.289 | 0.226 | 0.02 | 0.189 |
| AKR1C4 (aldo-keto reductase family 1 member C4) | SID363993034 | 0.128 | 0.281 | 0.384 | 0.0304 | 0.215 |
| ARHGEF15 (Rho guanine nucleotide exchange factor 15) | SID364004848 | 0.0821 | 0.0957 | 0.354 | 0.0217 | 0.0993 |
| SIT1 (signaling threshold regulating transmembrane adaptor 1) | SID363998863 | 0.101 | 0.443 | 0.11 | 0.0152 | 0.0238 |
| LAMP1 (lysosome associated membrane protein 1) | SID363996461 | 0.0236 | 0.506 | 0.263 | 0.0376 | 0.0874 |
| TAFA5 (TAFA chemokine like family member 5) | SID363999456 | 0.101 | 0.116 | 0.34 | 0.036 | 0.111 |
| MAP2K1 (mitogen-activated protein kinase kinase 1) | SID363993913 | 0.227 | 0.127 | 0.39 | 0.0045 | 0.181 |
| RGS1 (regulator of G protein signaling 1) | SID363994076 | 0.0837 | 0.0825 | 0.239 | 0.0206 | 0.189 |
| TGFBR2 (transforming growth factor beta receptor 2) | SID363994363 | 0.128 | 0.142 | 0.432 | 0.0174 | 0.384 |
| PLEKHA6 (pleckstrin homology domain containing A6) | SID363999207 | 0.0124 | 0.217 | 0.286 | 0.0256 | 0.213 |
| PCDHB8 (protocadherin beta 8) | SID364001417 | 0.0918 | 0.444 | 0.318 | 0.0226 | 0.273 |
| KRTAP5-9 (keratin associated protein 5-9) | SID363996453 | 0.186 | 0.255 | 0.374 | 0.0293 | 0.0794 |
| SLC39A6 | SID363998229 | 0.118 | 0.335 | 0.218 | 0.0214 | 0.115 |
| MT1E (metallothionein 1E) | SID364004870 | 0.0817 | 0.199 | 0.348 | 0.00672 | 0.129 |
| PKD2L2 | SID363998808 | 0.172 | 0.0912 | 0.133 | 0.0325 | 0.182 |
| DEF6 (DEF6 guanine nucleotide exchange factor) | SID364002286 | 0.0848 | 0.0837 | 0.259 | 0.01 | 0.111 |
| AFF3 (ALF transcription elongation factor 3) | SID363993483 | 0.0986 | 0.094 | 0.401 | 0.00166 | 0.162 |
| AAK1 (AP2 associated kinase 1) | SID363999191 | 0.429 | 0.14 | 0.076 | 0.0172 | 0.166 |
| XAF1 (XIAP associated factor 1) | SID364000337 | 0.113 | 0.0967 | 0.358 | 0.0101 | 0.151 |

An excerpt of the results above:
| target gene | PubChem SID | BNIP3L mRNA, set 1 | NDRG1 mRNA, set 1 | BNIP3 mRNA, set 1 | ALDOC mRNA, set 1 | ACSL5 mRNA, set 1 |
| --- | --- | --- | --- | --- | --- | --- |
| DEF6 (DEF6 guanine nucleotide exchange factor) | SID364002286 | 0.0848 | 0.0837 | 0.259 | 0.01 | 0.111 |
| AFF3 (ALF transcription elongation factor 3) | SID363993483 | 0.0986 | 0.094 | 0.401 | 0.00166 | 0.162 |
| AAK1 (AP2 associated kinase 1) | SID363999191 | 0.429 | 0.14 | 0.076 | 0.0172 | 0.166 |
| XAF1 (XIAP associated factor 1) | SID364000337 | 0.113 | 0.0967 | 0.358 | 0.0101 | 0.151 |
